Patent publication US11760889B2, “Unsaturated fatty alcohol derivatives from natural oil metathesis” (priority 2012, dated 2023)

Test: Agricultural dispersant screening (sedimentation of pesticide powder in hard water)
Set-up: key to Sedimentation results at 1 h: Trace of sediment=“Tr”; flocked is also abbreviated as “FI.”
[1] = Chlorothalonil, test water 342 ppm
[2] = Chlorothalonil, test water 1000 ppm
[3] = Imidacloprid, test water 342 ppm
[4] = Imidacloprid, test water 1000 ppm
[5] = Tebuconazole, test water 342 ppm
[6] = Tebuconazole, test water 1000 ppm

| Substance | Sedimentation results at 1 h (Atrazine, test water 342 ppm) | Sedimentation results at 24 h (Atrazine, test water 342 ppm) | Sedimentation results at 1 h (Atrazine, test water 1000 ppm) | Sedimentation results at 24 h (Atrazine, test water 1000 ppm) | Sedimentation results at 1 h [1] | Sedimentation results at 24 h [1] | Sedimentation results at 1 h [2] | Sedimentation results at 24 h [2] | Sedimentation results at 1 h (Diuron, test water 342 ppm) | Sedimentation results at 24 h (Diuron, test water 342 ppm) | Sedimentation results at 1 h (Diuron, test water 1000 ppm) | Sedimentation results at 24 h (Diuron, test water 1000 ppm) | Sedimentation results at 1 h [3] | Sedimentation results at 24 h [3] | Sedimentation results at 1 h [4] | Sedimentation results at 24 h [4] | Sedimentation results at 1 h [5] | Sedimentation results at 24 h [5] | Sedimentation results at 1 h [6] |
| --- | --- | --- | --- | --- | --- | --- | --- | --- | --- | --- | --- | --- | --- | --- | --- | --- | --- | --- | --- |
| 5 Mole Ethoxylated C12 Alcohol, Ammonium Sulfate [A12-11] | 0.25 to 0.5 mL | 1.0 to 1.25 mL | 0.5 to 1.0 mL | 1.0 to 2.25 mL | 0.5 to 1.25 mL | 1.0 to 1.5 mL | 0.75 to 1.5 mL | 1.5 to 2.75 mL | 1.0 to 1.5 mL | 2.0 to 2.5 mL | 2.0 to 2.25 mL | Fl. | 1.0 to 1.25 mL | 2.0 to 2.5 mL | 2.0-2.5; 2.0-2.5 mL | 2.0-2.5; 2.0-2.5 mL | Tr | 3.0 to 3.25 mL | flocked |
| 15 Mole Ethoxylated C10 Alcohol, Sodium Sulfate [A10-18] | 0.25 mL | 1.0 to 1.25 mL | 0.25 mL | 1.5 mL | 0.25 mL | 1.5 to 1.75 mL | 0.25 mL | 1.0 to 1.25 mL | 0.5 to 0.75 mL | 1.25 to 1.5 mL | 1.0 to 1.25 mL | Fl. | flocked |  | flocked |  | flocked |  | flocked |
| 1 Mole Ethoxylated C10 Alcohol, Sodium Sulfate [A10-6] | 0.25 to 0.5 mL | 1 to 1.25 mL | 0.25 mL | 1 to 1.25 mL | 0.5 to 0.75 mL | 1.25 to 1.5 mL | 0.75 mL | 1.5 mL | 0.25 to 0.5 mL | 0.5 to 1 mL | 0.5 mL | 1 mL | flocked |  | flocked |  | flocked |  | flocked |
| 3 Mole Ethoxylated C10 Alcohol, Ammonium Sulfate [A10-8] |  | 1.25 to 1.5 mL | 0.25 mL | 1.5 to 1.75 mL | 0.25 to 0.5 mL | 1 to 1.25 mL | 0.25 to 0.75 mL | 1.75 to 2.0 mL | 0.5 to 0.75 mL | 1 to 1.25 mL | 0.5 to 0.75 mL | 1 to 1.25 mL | 4.75 to 5.0 mL | Fl. | 4.5 to 4.75 mL | Fl. | flocked |  | flocked |
| 3 Mole Ethoxylated C10 Alcohol, Sodium Sulfate [A10-9] | 0.25 mL | 0.75 to 1.25 mL | 0.25 mL | 1.5 to 2.0 mL | 0.75 to 1.0 mL | 1.5 to 1.75 mL | 0.25 mL | 0.5 to 0.75 mL | 0.5 mL | 1.0 to 1.25 mL | 0.5 to 0.75 mL | 1.25 to 1.75 mL | 2.75 to 3.0 mL | Fl. | 3.5 to 3.75 mL | Fl. | flocked |  | flocked |
